According to patent publication US10472315B2, “Inhibitors of methionine aminopeptidases and methods of treating disorders” (THE JOHNS HOPKINS UNIVERSITY, priority 2009, dated 2019):
Some results were stated once for a whole list of compounds, not compound by compound. For some assays here: At least one compound was matched to its structure with a doubt left.

Protein sequences, listed by entry. Tags and fused reporters are not part of them. Lines headed by an entry give the natural chain unless they say otherwise; changes in a name come on top.
UniProt P9WK19: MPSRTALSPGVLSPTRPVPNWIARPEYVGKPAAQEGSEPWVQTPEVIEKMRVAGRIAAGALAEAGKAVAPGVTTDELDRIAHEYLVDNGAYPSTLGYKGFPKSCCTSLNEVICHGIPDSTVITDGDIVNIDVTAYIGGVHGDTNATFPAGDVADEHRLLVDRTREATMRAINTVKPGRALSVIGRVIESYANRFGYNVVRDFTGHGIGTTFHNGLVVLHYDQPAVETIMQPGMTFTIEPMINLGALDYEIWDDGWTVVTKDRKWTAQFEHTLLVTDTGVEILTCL
UniProt P9WK21: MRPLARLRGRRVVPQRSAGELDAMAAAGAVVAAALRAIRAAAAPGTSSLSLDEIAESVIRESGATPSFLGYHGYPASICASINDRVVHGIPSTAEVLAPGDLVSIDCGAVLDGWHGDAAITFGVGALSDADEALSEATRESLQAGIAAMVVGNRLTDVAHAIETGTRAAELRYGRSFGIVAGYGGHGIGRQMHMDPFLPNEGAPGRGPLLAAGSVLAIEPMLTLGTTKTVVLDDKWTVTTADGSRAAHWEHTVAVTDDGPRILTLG

Experiments:
[1] = target: T1, MtMetAP1c (Mycobacterium tuberculosis, UniProt P9WK19); assay: Coupled methionine-proline aminopeptidase assay (Met-Pro-pNA), IC50 determination; assay type: biochemical, M. tuberculosis; conditions: statement on MtMetAPs / both enzymes
T1 construct: made in house; host or cells: E. coli BL21
Protocol: (§1) Determination of IC50 of Inhibitors of MtMetAPs and Clustering of Structural Classes of Inhibitors (ASDI-ISIS)
(§2) We determined the concentration needed for 50% inhibition in 96-well plates at final concentrations ranging from 100 μM-300 nM (for 81 compounds that were available in larger quantities). The total reaction volume was 50 μL and each reaction contained each MtMetAP1 respectively and 40 mM Hepes buffer (p.H 7.5), 100 mM NaCl, 100 μg/mL BSA, 0.1 U/mL ProAP, 1.5 μM CoCl2, 600 μM substrate (Met-Pro-pNA). The enzyme was pre-incubated with compounds for 20 min at room temperature followed by addition of substrate. The reaction was incubated at room temperature for 30 min and monitored at 405 nm on a spectrophotometer. The background hydrolysis was corrected and the data was fitted against the sigmoidal-dose response (variable slope) equation using GraphPad Prism software.

[2] = target: T2, MtMetAP1a (Mycobacterium tuberculosis, UniProt P9WK21); assay: as above; assay type: biochemical, M. tuberculosis; conditions: statement on MtMetAPs / both enzymes
T2 construct: made in house; host or cells: E. coli BL21 (DE3)
Protocol: as §1, §2

Structure (SMILES) | inhibition of MtMetAP1c, in words [1] | inhibition of MtMetAP1a, in words [2]
COc1ccc2c(c1)CCc1sc(NCc3ccco3)nc1-2 [compound 43, 2-(2-Furyl)methylamino-7-methoxy-4,5-dihydro-naphtho[1,2-d]thiazole] | completely inactive | completely inactive
COc1ccc2c(c1)CCc1sc(N=Cc3ccco3)nc1-2 [Schiff base 45] | completely inactive | –
COc1ccc2c(c1)CCc1sc(NC(=O)C(C)O)nc1-2 (centres unmarked) [compound 42, 2-Lactoylamino-7-methoxy-4,5-dihydronaphtho[1,2-d]thiazole] | completely inactive | completely inactive
